Measured values: paper PMC3827166
These are yes or no findings as the source states them, for the method shown. Binding seen in cells or lysates may run through a third protein. Some results given as binding are weak or reduced against the parent protein; the word gives no strength. Values belong to the molecule of their own block, whether it stands above or below them.

Amino acid sequences for entries named in this document (tags omitted).
UniProt Q9JLT0: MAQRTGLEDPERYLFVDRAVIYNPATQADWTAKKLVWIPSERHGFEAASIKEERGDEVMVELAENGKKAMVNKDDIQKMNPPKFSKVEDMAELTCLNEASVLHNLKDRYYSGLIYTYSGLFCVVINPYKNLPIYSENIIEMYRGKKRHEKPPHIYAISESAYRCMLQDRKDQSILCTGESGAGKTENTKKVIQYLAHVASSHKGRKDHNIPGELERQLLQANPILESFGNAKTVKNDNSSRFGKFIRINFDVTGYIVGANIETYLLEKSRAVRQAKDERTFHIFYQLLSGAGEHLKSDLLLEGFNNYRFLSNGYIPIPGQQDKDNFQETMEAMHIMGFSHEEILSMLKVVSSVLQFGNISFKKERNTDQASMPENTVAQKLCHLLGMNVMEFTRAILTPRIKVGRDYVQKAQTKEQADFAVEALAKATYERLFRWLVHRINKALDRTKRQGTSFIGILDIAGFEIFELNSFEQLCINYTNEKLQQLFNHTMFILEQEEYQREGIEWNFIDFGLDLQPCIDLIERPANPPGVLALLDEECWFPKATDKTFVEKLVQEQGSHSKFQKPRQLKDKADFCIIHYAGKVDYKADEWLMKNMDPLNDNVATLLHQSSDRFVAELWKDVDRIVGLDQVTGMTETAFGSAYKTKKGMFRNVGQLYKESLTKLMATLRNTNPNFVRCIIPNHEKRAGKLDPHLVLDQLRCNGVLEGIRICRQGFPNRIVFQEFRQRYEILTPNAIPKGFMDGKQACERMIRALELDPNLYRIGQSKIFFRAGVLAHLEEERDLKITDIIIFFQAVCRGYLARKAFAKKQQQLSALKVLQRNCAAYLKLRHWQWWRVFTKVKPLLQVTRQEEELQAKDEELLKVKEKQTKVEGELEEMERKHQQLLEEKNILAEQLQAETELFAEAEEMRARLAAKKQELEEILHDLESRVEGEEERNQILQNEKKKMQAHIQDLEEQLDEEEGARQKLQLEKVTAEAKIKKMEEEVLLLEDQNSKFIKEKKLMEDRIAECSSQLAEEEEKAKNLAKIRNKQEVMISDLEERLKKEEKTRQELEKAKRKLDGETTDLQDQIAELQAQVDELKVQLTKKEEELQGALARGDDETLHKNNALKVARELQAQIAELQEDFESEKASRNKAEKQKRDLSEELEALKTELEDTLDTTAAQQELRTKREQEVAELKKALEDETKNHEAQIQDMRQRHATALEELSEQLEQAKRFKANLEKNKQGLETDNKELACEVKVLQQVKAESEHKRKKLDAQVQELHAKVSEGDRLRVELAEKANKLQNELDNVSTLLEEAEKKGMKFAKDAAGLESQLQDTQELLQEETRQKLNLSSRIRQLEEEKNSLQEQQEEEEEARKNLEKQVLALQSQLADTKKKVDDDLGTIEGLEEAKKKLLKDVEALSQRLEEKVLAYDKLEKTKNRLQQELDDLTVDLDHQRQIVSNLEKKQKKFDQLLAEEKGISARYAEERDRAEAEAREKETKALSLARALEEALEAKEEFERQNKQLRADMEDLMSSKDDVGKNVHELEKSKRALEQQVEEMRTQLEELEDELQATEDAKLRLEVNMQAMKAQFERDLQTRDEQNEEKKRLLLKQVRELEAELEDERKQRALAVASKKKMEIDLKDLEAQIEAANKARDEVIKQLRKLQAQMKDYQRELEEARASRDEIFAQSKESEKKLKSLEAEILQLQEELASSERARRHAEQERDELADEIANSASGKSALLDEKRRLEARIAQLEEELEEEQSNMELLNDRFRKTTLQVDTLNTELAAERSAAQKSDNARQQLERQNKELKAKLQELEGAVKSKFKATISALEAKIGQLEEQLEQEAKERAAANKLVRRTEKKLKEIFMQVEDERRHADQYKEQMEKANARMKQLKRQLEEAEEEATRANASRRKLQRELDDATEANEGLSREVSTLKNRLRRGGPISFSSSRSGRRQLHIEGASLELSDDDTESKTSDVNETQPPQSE

Key:
[1] = molecular target: T1, four-and-a-half LIM protein-1 (FHL1) (rat (endogenous in L6GNR4 cells and E17 rat embryo lower limbs)) (UniProt Q9WUH4); assay: co-IP; wild-type E17 rat embryo lower limb lysate; immunoprecipitation with anti-FHL1 antibody, Western blot
T1 sequence: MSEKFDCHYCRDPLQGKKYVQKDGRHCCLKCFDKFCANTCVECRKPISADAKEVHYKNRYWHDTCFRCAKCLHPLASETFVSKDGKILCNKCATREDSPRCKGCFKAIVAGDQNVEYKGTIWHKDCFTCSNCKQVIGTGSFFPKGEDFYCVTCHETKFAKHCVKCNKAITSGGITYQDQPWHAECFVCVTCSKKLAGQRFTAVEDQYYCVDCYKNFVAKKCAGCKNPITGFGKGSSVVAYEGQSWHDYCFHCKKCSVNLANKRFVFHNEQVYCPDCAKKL

[2] = molecular target: T1, four-and-a-half LIM protein-1 (FHL1) (rat (endogenous in L6GNR4 cells and E17 rat embryo lower limbs)); assay: co-IP; L6GNR4 cell lysate; immunoprecipitation with anti-Fhl1, anti-Actg1 or anti-Myh10 antibody, Western blot
[3] = molecular target: non-muscle myosin IIB (Myh10) (rat (endogenous in L6GNR4 cells and E17 rat embryo lower limbs)) (UniProt Q9JLT0); assay: as above

binding [1]: binds
binding [2]: binds
Molecule: non-muscle myosin IIB (Myh10) (from UniProt Q9JLT0 1-1976)

binding [3]: binds
B1: four-and-a-half LIM protein-1 (FHL1) (protein, UniProt Q9WUH4 1-280)
chain: T1 sequence
